PubChem BioAssay AID1224826 – NIAID, 2016
Aim: 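Genes that change LPS-induced Tnf promoter activity in mouse macrophages when knocked down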 (primary screen). Cell system: RAW264.7 G9 macrophages from mouse bearing reporters for p65 (GFP) and the Tnf promoter (mCherry). Reagent: siRNA pool against mouse genes, 100 nM. Time to read-out: 16 h of LPS stimulation, after 2 days of siRNA transfection. Challenge: bacterial lipopolysaccharide (Salmonella minnesota R595), 10 ng/ml. Read-out: 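Nuclear mCherry signal of the Tnf promoter reporter measured by imaging after background removal, scaled to each plate median and turned into robust z-scores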. Reading the numbers: Tnf reporter robust z-score: higher = stronger Tnf promoter reporter signal after LPS; Tnf reporter intensity: higher = stronger Tnf promoter reporter signal. Rule for the call: 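a well counts as active at a score of -1.3 or below (Tlr4 knock-down control median) or above 3 (raised signal); controls and wells holding fewer than 50 cells are excluded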. Meaning of the calls: active = Tnf reporter clearly lowered or raised; inactive = no clear change in Tnf reporter.
In all, the deposit lists about 17,000 reagents; shown is a random part of them. Over the whole deposit, about 1,110 (6.6%) are marked active. 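Active means lowered or raised reporter signal; replicate intensities are raw and not normalised per plate.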

Target gene	PubChem SID	Tnf reporter robust z-score	fewer than 50 cells in well	Tnf reporter intensity, replicate 1	Tnf reporter intensity, replicate 2	outcome
Col17a1 (collagen, type XVII, alpha 1)	SID315466051	-1.27	enough cells in well	157	103	inactive
Plekhj1 (pleckstrin homology domain containing J1)	SID315475599	-0.63	enough cells in well	102	102	inactive
Flt4 (FMS-like tyrosine kinase 4)	SID315466722	1.84	enough cells in well	397	188	inactive
Cotl1 (coactosin like F-actin binding protein 1)	SID315474430	1.18	enough cells in well	246	258	inactive
Plpp5 (phospholipid phosphatase 5)	SID315474374	-0.66	enough cells in well	122	133	inactive
Mettl2 (methyltransferase 2, methylcytidine)	SID315471002	-0.65	enough cells in well	127	132	inactive
Pdlim2 (PDZ and LIM domain 2)	SID315477777		fewer than 50 cells per well; well left out of calls	87.2	94.5	inactive
Stard3 (StAR related lipid transfer domain containing 3)	SID315471976	1.71	enough cells in well	207	111	inactive
Sycn (syncollin)	SID315473526	6.07	enough cells in well	370	274	active
Ccdc33 (coiled-coil domain containing 33)	SID315481820	1.58	enough cells in well	271	104	inactive
Rab25 (RAB25, member RAS oncogene family)	SID315471114	0.56	enough cells in well	385	233	inactive
Sh3bp4 (SH3-domain binding protein 4)	SID315476133	0.58	enough cells in well	264	316	inactive
Hdac1 (histone deacetylase 1)	SID315481966	1.25	enough cells in well	376	233	inactive
Usp17la (ubiquitin specific peptidase 17-like A)	SID315466405	2.37	enough cells in well	303	229	inactive
Cdhr4 (cadherin-related family member 4)	SID315481246	0.55	enough cells in well	178	227	inactive

Continued (3 carried over from the part before).
Target gene	PubChem SID	Tnf reporter robust z-score	fewer than 50 cells in well	Tnf reporter intensity, replicate 1	Tnf reporter intensity, replicate 2	outcome
Hdac1 (histone deacetylase 1)	SID315481966	1.25	enough cells in well	376	233	inactive
Usp17la (ubiquitin specific peptidase 17-like A)	SID315466405	2.37	enough cells in well	303	229	inactive
Cdhr4 (cadherin-related family member 4)	SID315481246	0.55	enough cells in well	178	227	inactive
Rrm2b (ribonucleotide reductase M2 B (TP53 inducible))	SID315481833	0.53	enough cells in well	344	255	inactive
Yju2b (YJU2 splicing factor homolog B)	SID315473200	-0.09	enough cells in well	201	48.7	inactive
Jag1 (jagged 1)	SID315467542	0.64	enough cells in well	291	183	inactive
Fam162a (family with sequence similarity 162, member A)	SID315473986		fewer than 50 cells per well; well left out of calls	120	40.2	inactive
Gpr26 (G protein-coupled receptor 26)	SID315479130	-0.46	enough cells in well	162	284	inactive
H2bc27 (H2B clustered histone 27)	SID315475561	-1.64	enough cells in well	138	54.6	active
Lmf2 (lipase maturation factor 2)	SID315476515	0.25	enough cells in well	222	205	inactive
Cela1 (chymotrypsin-like elastase family, member 1)	SID315476855		fewer than 50 cells per well; well left out of calls	141	15.7	inactive
Arl3 (ADP-ribosylation factor-like 3)	SID315471471	-0.24	enough cells in well	160	337	inactive
